In patent publication US20210238253A1 (GUANGDONG ZHAOTAI INVIVO BIOMEDICINE, published 2021):
No constants are given. Whether binding was seen depends on the method and setting. Some entries that bind do so weakly or less than the wild type.

Amino acid sequences for entries named in this document (tags omitted). A change or cut given only in a name is not applied to a line headed by its entry. Chains listed by the source or under a name are the forms on record and can include a tag or linker. Residues count along the entry.
UniProt P15391: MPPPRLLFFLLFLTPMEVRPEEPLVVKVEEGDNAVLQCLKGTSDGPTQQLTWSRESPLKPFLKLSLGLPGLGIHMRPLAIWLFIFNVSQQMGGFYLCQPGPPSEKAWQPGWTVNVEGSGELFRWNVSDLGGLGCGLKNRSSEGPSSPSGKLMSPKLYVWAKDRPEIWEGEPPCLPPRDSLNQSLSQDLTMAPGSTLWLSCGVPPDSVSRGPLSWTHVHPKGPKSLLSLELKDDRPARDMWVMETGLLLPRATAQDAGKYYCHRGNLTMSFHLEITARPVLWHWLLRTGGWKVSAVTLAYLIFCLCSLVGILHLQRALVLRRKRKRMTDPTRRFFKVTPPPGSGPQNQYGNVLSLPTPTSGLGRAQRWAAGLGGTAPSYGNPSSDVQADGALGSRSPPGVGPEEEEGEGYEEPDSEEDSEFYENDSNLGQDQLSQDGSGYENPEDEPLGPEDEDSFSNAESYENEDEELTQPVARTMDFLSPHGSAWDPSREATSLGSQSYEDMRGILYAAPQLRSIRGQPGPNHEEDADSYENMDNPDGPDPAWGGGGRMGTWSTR
CD19 expressed by Nalm6 cells: residues 20-556 of P15391
hCD19-his (human CD19 recombinant protein, Pro20-Lys291, His tag at C-terminus): residues 20-291 of P15391

Columns and labels:
[1] = molecular target: hCD19-his (human CD19 recombinant protein, Pro20-Lys291, His tag at C-terminus) (human) (UniProt P15391); experiment: ELISA, coated hCD19-His 0.5 µg/ml, antibody 2 µg/ml
[2] = molecular target: CD19 expressed by Nalm6 cells (UniProt P15391); experiment: flow cytometry on Nalm6 cells
[3] = molecular target: hCD19-his (human CD19 recombinant protein, Pro20-Lys291, His tag at C-terminus) (human) (UniProt P15391); experiment: ELISA, coated hCD19-His

Measured: binding

B1: 11H8 (hybridoma antibody) (antibody, V domains shown)
VH: QVQLVESGGGVVQPGRSLRLSCAASGFTFSRHGMHWVRQAPGKGLEWVAVIWYDGSNQYYVDSVKGRFTISRDNSKNTLDLQMNSLRVEDTAVYYCARRSITWYGGFDIWGQGTMVTVSS
VL: DIQMTQSPSTLSASVGDRVTITCRASQSISSWLAWYQQKPGKAPKLLIYKASSLESGVPPRFSGSGSGTEFTLTISSLQPDDFATYYCQQYNSAYTFGQGTKLEIK
notes: hybridoma mAb from H2L2 mouse (human variable, rat constant regions)
binds: all assays above
